Measured values reported in the supplement of paper PMC11546906.
Counter-ions that a name gives are not always drawn. The list shows a part of the results. Repeats in this data set agree poorly, so a single value says little.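 FDA-approved drugs were each paired with colistin at one-eighth its MIC and screened against a multidrug-resistant, mcr-1-positive clinical E. coli isolate, with OD600 read after 24 h. Drug-free bacteria served as growth control, plain broth as blank. Combinations were active if OD600 dropped below 0.2.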

tested on: Escherichia coli 42 (mcr-1-positive clinical isolate); assay: OD600 after 24 h growth with compound plus colistin (absorbance units (OD600)); higher = more bacterial growth (less inhibition); details: first compound 25 µM; colistin concentration 0.5 ug/mL; incubation time 24 h; 37 °C

| Compound | OD600 |
| --- | --- |
| CC(=O)NO [Acetohydroxamic acid] + CCC(C)CCCC(=O)N[C@@H](CCN)C(=O)N[C@H](C(=O)N[C@@H](CCN)C(=O)N[C@H]1CCNC(=O)[C@H]([C@@H](C)O)NC(=O)[C@H](CCN)NC(=O)[C@H](CCN)NC(=O)[C@H](CC(C)C)NC(=O)[C@@H](CC(C)C)NC(=O)[C@H](CCN)NC1=O)[C@@H](C)O [colistin] | inactive: 1.15 |
| Cc1onc(-c2ccccc2)c1-c1ccc(S(N)(=O)=O)cc1 [Valdecoxib] + CCC(C)CCCC(=O)N[C@@H](CCN)C(=O)N[C@H](C(=O)N[C@@H](CCN)C(=O)N[C@H]1CCNC(=O)[C@H]([C@@H](C)O)NC(=O)[C@H](CCN)NC(=O)[C@H](CCN)NC(=O)[C@H](CC(C)C)NC(=O)[C@@H](CC(C)C)NC(=O)[C@H](CCN)NC1=O)[C@@H](C)O [colistin] | inactive: 0.986 |
| CC(=O)O[C@@]12CO[C@@H]1C[C@H](O)[C@@]1(C)C(=O)[C@H](O)C3=C(C)[C@@H](OC(=O)[C@H](O)[C@@H](NC(=O)OC(C)(C)C)c4ccccc4)C[C@@](O)([C@@H](OC(=O)c4ccccc4)[C@H]21)C3(C)C [Docetaxel] + CCC(C)CCCC(=O)N[C@@H](CCN)C(=O)N[C@H](C(=O)N[C@@H](CCN)C(=O)N[C@H]1CCNC(=O)[C@H]([C@@H](C)O)NC(=O)[C@H](CCN)NC(=O)[C@H](CCN)NC(=O)[C@H](CC(C)C)NC(=O)[C@@H](CC(C)C)NC(=O)[C@H](CCN)NC1=O)[C@@H](C)O [colistin] | inactive: 0.842 |
| Fc1ccc([C@@H]2CCNC[C@H]2COc2ccc3c(c2)OCO3)cc1 [Paroxetine hydrochloride] + CCC(C)CCCC(=O)N[C@@H](CCN)C(=O)N[C@H](C(=O)N[C@@H](CCN)C(=O)N[C@H]1CCNC(=O)[C@H]([C@@H](C)O)NC(=O)[C@H](CCN)NC(=O)[C@H](CCN)NC(=O)[C@H](CC(C)C)NC(=O)[C@@H](CC(C)C)NC(=O)[C@H](CCN)NC1=O)[C@@H](C)O [colistin] | inactive: 0.761 |
| CCC(=O)NCC[C@@H]1CCc2ccc3c(c21)CCO3 [Ramelteon] + CCC(C)CCCC(=O)N[C@@H](CCN)C(=O)N[C@H](C(=O)N[C@@H](CCN)C(=O)N[C@H]1CCNC(=O)[C@H]([C@@H](C)O)NC(=O)[C@H](CCN)NC(=O)[C@H](CCN)NC(=O)[C@H](CC(C)C)NC(=O)[C@@H](CC(C)C)NC(=O)[C@H](CCN)NC1=O)[C@@H](C)O [colistin] | inactive: 1.05 |
| CN(C/C=C/C#CC(C)(C)C)Cc1cccc2ccccc12 [Terbinafine hydrochloride] + CCC(C)CCCC(=O)N[C@@H](CCN)C(=O)N[C@H](C(=O)N[C@@H](CCN)C(=O)N[C@H]1CCNC(=O)[C@H]([C@@H](C)O)NC(=O)[C@H](CCN)NC(=O)[C@H](CCN)NC(=O)[C@H](CC(C)C)NC(=O)[C@@H](CC(C)C)NC(=O)[C@H](CCN)NC1=O)[C@@H](C)O [colistin] | inactive: 0.76 |
| COc1cc2ncnc(Nc3ccc(F)c(Cl)c3)c2cc1OCCCN1CCOCC1 [Gefitinib] + CCC(C)CCCC(=O)N[C@@H](CCN)C(=O)N[C@H](C(=O)N[C@@H](CCN)C(=O)N[C@H]1CCNC(=O)[C@H]([C@@H](C)O)NC(=O)[C@H](CCN)NC(=O)[C@H](CCN)NC(=O)[C@H](CC(C)C)NC(=O)[C@@H](CC(C)C)NC(=O)[C@H](CCN)NC1=O)[C@@H](C)O [colistin] | inactive: 1 |
| N#Cc1ccc2[nH]cc(CCCCN3CCN(c4ccc5oc(C(N)=O)cc5c4)CC3)c2c1 [Vilazodone Hydrochloride] + CCC(C)CCCC(=O)N[C@@H](CCN)C(=O)N[C@H](C(=O)N[C@@H](CCN)C(=O)N[C@H]1CCNC(=O)[C@H]([C@@H](C)O)NC(=O)[C@H](CCN)NC(=O)[C@H](CCN)NC(=O)[C@H](CC(C)C)NC(=O)[C@@H](CC(C)C)NC(=O)[C@H](CCN)NC1=O)[C@@H](C)O [colistin] | inactive: 1.03 |
| CC(=O)OC[C@H]1O[C@@H]([S-])[C@H](OC(C)=O)[C@@H](OC(C)=O)[C@@H]1OC(C)=O.CCP(CC)CC.[Au+] [Auranofin] + CCC(C)CCCC(=O)N[C@@H](CCN)C(=O)N[C@H](C(=O)N[C@@H](CCN)C(=O)N[C@H]1CCNC(=O)[C@H]([C@@H](C)O)NC(=O)[C@H](CCN)NC(=O)[C@H](CCN)NC(=O)[C@H](CC(C)C)NC(=O)[C@@H](CC(C)C)NC(=O)[C@H](CCN)NC1=O)[C@@H](C)O [colistin] | active: 0.036 |
| NC(=N\CCCCCC/N=C(N)/N=C(\N)Nc1ccc(Cl)cc1)/N=C(\N)Nc1ccc(Cl)cc1 [Chlorhexidine diacetate] + CCC(C)CCCC(=O)N[C@@H](CCN)C(=O)N[C@H](C(=O)N[C@@H](CCN)C(=O)N[C@H]1CCNC(=O)[C@H]([C@@H](C)O)NC(=O)[C@H](CCN)NC(=O)[C@H](CCN)NC(=O)[C@H](CC(C)C)NC(=O)[C@@H](CC(C)C)NC(=O)[C@H](CCN)NC1=O)[C@@H](C)O [colistin] | active: 0.036 |
| COC(=O)[C@@H]1[C@H]2C[C@H]3c4[nH]c5ccccc5c4CCN3C[C@@H]2CC[C@@H]1O [Yohimbine hydrochloride] + CCC(C)CCCC(=O)N[C@@H](CCN)C(=O)N[C@H](C(=O)N[C@@H](CCN)C(=O)N[C@H]1CCNC(=O)[C@H]([C@@H](C)O)NC(=O)[C@H](CCN)NC(=O)[C@H](CCN)NC(=O)[C@H](CC(C)C)NC(=O)[C@@H](CC(C)C)NC(=O)[C@H](CCN)NC1=O)[C@@H](C)O [colistin] | inactive: 1.03 |
| CNC(=O)c1ccc(N2C(=S)N(c3ccc(C#N)c(C(F)(F)F)c3)C(=O)C2(C)C)cc1F [Enzalutamide] + CCC(C)CCCC(=O)N[C@@H](CCN)C(=O)N[C@H](C(=O)N[C@@H](CCN)C(=O)N[C@H]1CCNC(=O)[C@H]([C@@H](C)O)NC(=O)[C@H](CCN)NC(=O)[C@H](CCN)NC(=O)[C@H](CC(C)C)NC(=O)[C@@H](CC(C)C)NC(=O)[C@H](CCN)NC1=O)[C@@H](C)O [colistin] | inactive: 0.809 |
| COc1c(C)c2c(c(O)c1C/C=C(\C)CCC(=O)O)C(=O)OC2 [Mycophenolic acid] + CCC(C)CCCC(=O)N[C@@H](CCN)C(=O)N[C@H](C(=O)N[C@@H](CCN)C(=O)N[C@H]1CCNC(=O)[C@H]([C@@H](C)O)NC(=O)[C@H](CCN)NC(=O)[C@H](CCN)NC(=O)[C@H](CC(C)C)NC(=O)[C@@H](CC(C)C)NC(=O)[C@H](CCN)NC1=O)[C@@H](C)O [colistin] | inactive: 1.08 |
| CC(C)OC(=O)C(C)(C)Oc1ccc(C(=O)c2ccc(Cl)cc2)cc1 [Fenofibrate] + CCC(C)CCCC(=O)N[C@@H](CCN)C(=O)N[C@H](C(=O)N[C@@H](CCN)C(=O)N[C@H]1CCNC(=O)[C@H]([C@@H](C)O)NC(=O)[C@H](CCN)NC(=O)[C@H](CCN)NC(=O)[C@H](CC(C)C)NC(=O)[C@@H](CC(C)C)NC(=O)[C@H](CCN)NC1=O)[C@@H](C)O [colistin] | inactive: 0.884 |
| COc1ccc(Cl)cc1C(=O)NCCc1ccc(S(=O)(=O)NC(=O)NC2CCCCC2)cc1 [Glibenclamide] + CCC(C)CCCC(=O)N[C@@H](CCN)C(=O)N[C@H](C(=O)N[C@@H](CCN)C(=O)N[C@H]1CCNC(=O)[C@H]([C@@H](C)O)NC(=O)[C@H](CCN)NC(=O)[C@H](CCN)NC(=O)[C@H](CC(C)C)NC(=O)[C@@H](CC(C)C)NC(=O)[C@H](CCN)NC1=O)[C@@H](C)O [colistin] | inactive: 0.978 |
| Cc1ccccc1C(OCCN(C)C)c1ccccc1 (stereo unspecified) [Orphenadrine hydrochloride] + CCC(C)CCCC(=O)N[C@@H](CCN)C(=O)N[C@H](C(=O)N[C@@H](CCN)C(=O)N[C@H]1CCNC(=O)[C@H]([C@@H](C)O)NC(=O)[C@H](CCN)NC(=O)[C@H](CCN)NC(=O)[C@H](CC(C)C)NC(=O)[C@@H](CC(C)C)NC(=O)[C@H](CCN)NC1=O)[C@@H](C)O [colistin] | inactive: 0.953 |
| COc1cc([C@@H]2c3cc4c(cc3[C@@H](O[C@@H]3O[C@@H]5CO[C@@H](c6cccs6)O[C@H]5[C@H](O)[C@H]3O)[C@H]3COC(=O)[C@H]23)OCO4)cc(OC)c1O [Teniposide] + CCC(C)CCCC(=O)N[C@@H](CCN)C(=O)N[C@H](C(=O)N[C@@H](CCN)C(=O)N[C@H]1CCNC(=O)[C@H]([C@@H](C)O)NC(=O)[C@H](CCN)NC(=O)[C@H](CCN)NC(=O)[C@H](CC(C)C)NC(=O)[C@@H](CC(C)C)NC(=O)[C@H](CCN)NC1=O)[C@@H](C)O [colistin] | inactive: 0.929 |
| Cc1nnc(C(=O)NC(C)(C)c2nc(C(=O)NCc3ccc(F)cc3)c(O)c(=O)n2C)o1 [Raltegravir potassium] + CCC(C)CCCC(=O)N[C@@H](CCN)C(=O)N[C@H](C(=O)N[C@@H](CCN)C(=O)N[C@H]1CCNC(=O)[C@H]([C@@H](C)O)NC(=O)[C@H](CCN)NC(=O)[C@H](CCN)NC(=O)[C@H](CC(C)C)NC(=O)[C@@H](CC(C)C)NC(=O)[C@H](CCN)NC1=O)[C@@H](C)O [colistin] | inactive: 0.993 |
| CCC(=O)OCC(=O)[C@@]1(OC(=O)CC)[C@@H](C)C[C@H]2[C@@H]3CCC4=CC(=O)C=C[C@]4(C)[C@@]3(F)[C@@H](O)C[C@@]21C [Betamethasone dipropionate] + CCC(C)CCCC(=O)N[C@@H](CCN)C(=O)N[C@H](C(=O)N[C@@H](CCN)C(=O)N[C@H]1CCNC(=O)[C@H]([C@@H](C)O)NC(=O)[C@H](CCN)NC(=O)[C@H](CCN)NC(=O)[C@H](CC(C)C)NC(=O)[C@@H](CC(C)C)NC(=O)[C@H](CCN)NC1=O)[C@@H](C)O [colistin] | inactive: 0.781 |
| CC(S)C(=O)NCC(=O)O (stereo unspecified) [Tiopronin] + CCC(C)CCCC(=O)N[C@@H](CCN)C(=O)N[C@H](C(=O)N[C@@H](CCN)C(=O)N[C@H]1CCNC(=O)[C@H]([C@@H](C)O)NC(=O)[C@H](CCN)NC(=O)[C@H](CCN)NC(=O)[C@H](CC(C)C)NC(=O)[C@@H](CC(C)C)NC(=O)[C@H](CCN)NC1=O)[C@@H](C)O [colistin] | inactive: 1.02 |
| Cc1ccc(C(=O)Nc2ccc(CN3CCN(C)CC3)c(C(F)(F)F)c2)cc1C#Cc1cnc2cccnn12 [Ponatinib] + CCC(C)CCCC(=O)N[C@@H](CCN)C(=O)N[C@H](C(=O)N[C@@H](CCN)C(=O)N[C@H]1CCNC(=O)[C@H]([C@@H](C)O)NC(=O)[C@H](CCN)NC(=O)[C@H](CCN)NC(=O)[C@H](CC(C)C)NC(=O)[C@@H](CC(C)C)NC(=O)[C@H](CCN)NC1=O)[C@@H](C)O [colistin] | inactive: 0.791 |

Copied from the list.
For OD600, CC(=O)OC[C@H]1O[C@@H]([S-])[C@H](OC(C)=O)[C@@H](OC(C)=O)[C@@H]1OC(C)=O.CCP(CC)CC.[Au+] [Auranofin] + CCC(C)CCCC(=O)N[C@@H](CCN)C(=O)N[C@H](C(=O)N[C@@H](CCN)C(=O)N[C@H]1CCNC(=O)[C@H]([C@@H](C)O)NC(=O)[C@H](CCN)NC(=O)[C@H](CCN)NC(=O)[C@H](CC(C)C)NC(=O)[C@@H](CC(C)C)NC(=O)[C@H](CCN)NC1=O)[C@@H](C)O [colistin] shows active: 0.036
For OD600, COc1ccc(Cl)cc1C(=O)NCCc1ccc(S(=O)(=O)NC(=O)NC2CCCCC2)cc1 [Glibenclamide] + CCC(C)CCCC(=O)N[C@@H](CCN)C(=O)N[C@H](C(=O)N[C@@H](CCN)C(=O)N[C@H]1CCNC(=O)[C@H]([C@@H](C)O)NC(=O)[C@H](CCN)NC(=O)[C@H](CCN)NC(=O)[C@H](CC(C)C)NC(=O)[C@@H](CC(C)C)NC(=O)[C@H](CCN)NC1=O)[C@@H](C)O [colistin] shows inactive: 0.978
